The values below come from PubChem BioAssay AID1347423 (Functional Genomics Laboratory (NCATS/FGL), 2020).

The whole screen tested about 52,000 sequences, of which about 210 (0.4%) were called active.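 How the source made its calls: active means gene whose silencing raises cell survival under the drug, median off-target-corrected z-score across its silencing RNAs 2 or more; inactive means the rest.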 This is one part of the list.

This experiment in a line: Resistance to Poly (ADP-Ribose) Polymerase inhibitor: Gene Identification via Genome-wide siRNA Screen. The settings on record: mouse BRCA2 R2336H ES cells, olaparib, CellTiter-Glo viability; stronger effect = higher value. An outline of the steps:
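Genome-wide siRNA screen (3 siRNAs/gene, 20 nM) in mouse ES cells carrying hypomorphic BRCA2 R2336H; olaparib 500 nM added 48 h post-transfection, CellTiter-Glo viability 72 h later. Normalized to plate-median negative control; MAD z-scores, gene median, seed-adjusted.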
Take GGUGUAUGGCUUCUGUUGATT against Rab35: the z-score was inactive: 1.19.
The figure for “GGCUGCUGUGAAAUCAGAATT against D430041B17” is inactive: 2.4.
The figure for GCAAAGUUACCUCAGUUCUTT against Olfr539 is inactive: -0.708.
The figure for CCCAAAACUCUAGCUACUATT against Olfr824 is inactive: -2.41.
On to GCUGAGACCUUUAUUUAAATT against Col11a2, for which the z-score was inactive: 1.
For GGAUGUGGCGCAAUAUAUUTT against Gpt1, the z-score is inactive: 0.406.
CCCUCUACUACUGCAUCGUTT against AY534253: the z-score is inactive: 0.138.
With “GGAAUUUGAGAUUGAAUGUTT against 2410042D21Rik”, the z-score was inactive: 2.31.
As for “CCCGGUGCAGGAAUUCAACTT against D8Ertd812e”, the figure is inactive: 1.82.
With GCACUUACCGGAUCCAUUGTT against Clk4, the z-score is inactive: -1.62.
The figure for GGAGAUUUCUUCAUCUUUUTT against AW413431 is inactive: -1.29; for GGUUCAUACCUGUCUUAUUTT against Slc13a4 it is inactive: -0.847; for GGGUAGUUUUGACUUUGUUTT against Schip1 it is inactive: 0.155.
As for GCUACCAUUUGAUCAGUUUTT against Entpd1, the figure is inactive: 0.467; as for GGCCUUACUCUUAAGUUCUTT against Brf1, inactive: -0.322.
The figure for GGGAAGCUCAUUGAAGCAGTT against Snrpd3 is inactive: -1.1; for GCUACUAAAAGUAAAUGUCTT against Ugt8 it is inactive: -0.56.
On to GCAAGUACCUAGUGGUGGATT against Stk22b, for which the z-score was inactive: -0.0671.
As to GGUUCUUCCUCAAAUUCUUTT against Ebf4, the z-score is inactive: 0.79.
As for GCUAGUGUGAUACCAUUUATT against Nab1, the figure is inactive: 1.7; as for GCUAGAAGUCAUUUUGAAATT against Mme, inactive: -0.106.
The figure for “GCUAAGAUGAUGUCCUUGUTT against D12Ertd647e” is inactive: -1.36.
Consider GCUGAUACCGUCAUGAAUGTT against Gorasp2, for which the z-score was inactive: 0.422.
As for GGCUGUACUUCUGUCCCAUTT against Hus1b, the figure is inactive: -0.651; as for GCAUUGACAAUACGACCAGTT against Sgol1, inactive: -2.61.
The figure for CCUAUUGAAAAGCCAAACUTT against MGC48079 is inactive: 1.59; for GGAAAGAGACAGAAGAAGCTT against Lrpb7 it is inactive: -0.392.
The figure for GGAUUAAAGAUGCUUCCAATT against BC002199 is inactive: -0.422; for GGACUCAUUUGUGAACAGCTT against Centg3 it is inactive: 0.563; for GCGACUUUAGCUAAACAUGTT against Kcns2 it is inactive: 2.6.
On to GCUAUUUUCAUACAUUCCCTT against Bzrap1, for which the z-score is inactive: 0.447.
As for GCCUACAACUACUGAAACCTT against Ifnt1, the figure is inactive: -0.596; as for GGAUUGUUAGCAAAGAAAGTT against Aco1, inactive: -0.228; as for “GGAAUCGUUUUUGCUUAGATT against 1200013F24Rik”, inactive: -1.2.
As for GCAACAUUCCUACAAUUAATT against Gsta4, the figure is inactive: 0.155.
As for GGAGACUCCUUACGGCAAATT against Bnip1, the z-score is inactive: 0.535.
The figure for GGCUUUCUUUGACUGUCUCTT against Rdh6 is inactive: -0.481.
Regarding GGAAAUGACCUUGGUGUGUTT against Olfr644, the z-score is inactive: -2.66.
The figure for GGUGGCCUUUCCUCGAAGATT against Msi1h is inactive: -0.655; for GGUGGUUAUUUAUUGGUGATT against Sp6 it is inactive: -0.0325.
With CGAAAUGAAAACUUCCUGGTT against Mab21l1, the z-score is inactive: 0.64.
The figure for GGACCUGUGUGCUGAGUUGTT against Matn4 is inactive: 0.692; for GGAGCUUCAUCUUUCAAGATT against Uqcrc2 it is inactive: 0.483; for “CUCCGACCAUACUGGAAGATT against 0710001E13Rik” it is inactive: 0.691.
The figure for ACUAUCUGUACAACGUGCUTT against Kcnq5 is inactive: 1.37.
Turning to “CGUAUUGUUUCCUAGCACATT against 9130221D24Rik”, the z-score is inactive: 2.43.
The figure for GCCCUAGUCUUCUACAGCUTT against Gpr18 is inactive: 1.38; for GCAUUAGAAGAACUACUGATT against Gdpd2 it is inactive: 0.606; for GCCACGUAUAACCACGACATT against Spag4l it is inactive: -0.884.
The figure for GGACUCUUUCGCUGCAUGATT against Sucla2 is inactive: 0.376; for “GGUAUAAUCAAAGGAUAUCTT against C430003P19Rik” it is inactive: -0.752; for GGUGGAUAUAAUAAUUGACTT against Tgfbr3 it is inactive: 0.733.
As for CCUAUGGUAGAAAAAUACUTT against Fundc1, the figure is inactive: 0.518; as for GGUCUGCUAUGAAAUUAUGTT against Tmem14c, inactive: 1.43; as for CCUAGUAGCUCAGACACCGTT against Evx1, inactive: -0.339.
In the case of CCCUCAUUGUGGUUACCAUTT against Olfr1428, the z-score was inactive: 1.63.
In the case of GGACUAAGCAAUCUCUUUUTT against Gspt2, the z-score was inactive: -0.537.
The figure for GGAGGAACUCGAAUCUCAGTT against Adamts19 is inactive: 2.03.
The figure for “GCCCAACGUGGUGUACAUUTT against 1110032E23Rik” is inactive: -0.325; for “CCUUAAAACUUCAGGGCUCTT against 1700055D18Rik” it is inactive: -0.703.
As for “CCACCAGUUAUCCGAAUCATT against 4932414N04Rik”, the figure is inactive: 2.62.
As to GCUUGUCCACAUUGCCUUCTT against Olfr33, the z-score was inactive: -0.743.
As for “GCACUUGAACCGUGAGUGUTT against 2610034H20Rik”, the figure is inactive: 1.48; as for “GGCAUAUGCAUGUUAUAUCTT against E330009P21Rik”, inactive: 0.0984.
On to GGACCAAGACCGAUGUGUATT against Ccrl1, for which the z-score is inactive: 0.529.
Consider “GGUGCUGGAGAAAACCUUGTT against 2610020H15Rik”, for which the z-score is inactive: -0.121.
GGUGGAUGAAGAGUAUAAGTT against Phka2: the z-score is inactive: 1.09.
As for “GGAGACCAUGAAUUUAAUGTT against 1300018I05Rik”, the figure is inactive: 0.284; as for CGCCCUUGGAGGUUAAUCATT against Nsg2, inactive: -2.06; as for CGAGAUAAACCAUACCUGGTT against Zfp61, inactive: -0.27.
As for GGCAACAGACAAACAGCCGTT against Ugcg, the figure is inactive: 0.181; as for GGCAAUGGAGUUUCAAUUUTT against Stard5, inactive: 0.195.
As for GGCUUUUGAAAAGUUCACATT against Rnf32, the figure is inactive: -0.0695.
Consider CCUCAACUGGUUCCCUAACTT against Spatc1, for which the z-score is inactive: -0.181.
The figure for GGGUUUGAGGAAGUUAAGATT against Slc5a3 is inactive: 0.232; for “GGCUGUAUAAAUCAGAUUATT against 1600012H06Rik” it is inactive: 0.0132.
As for GGCGGUCAAAUACAAAAGGTT against Pde1a, the figure is inactive: 0.7; as for GGGUUUCUUCCUUGUCAGATT against Abcc3, inactive: 1.32.
The figure for “GGAGGAGGCAGAAACAACATT against 4930549C01Rik” is inactive: -0.4; for GCAAGACCAGUGGAGUGGUTT against Sncb it is inactive: 1.61.
In the case of GGUGUUGAAAUCGGUUUCCTT against Ube2v1, the z-score was inactive: -0.0537.
The figure for GGAGUUAAUUGCCCGCAACTT against Rab19 is inactive: -1.23; for GGCACUGAUGAUUAAGCUUTT against Gale it is inactive: -0.0723; for GGAUUCAAAGUGUGCACAATT against Lrrc3b it is inactive: -0.12.
As for GGACUAAGUGGACGGUUUATT against Txndc1, the figure is inactive: 0.449; as for GGCUGCCUAUCCCUAAACUTT against Cpt2, inactive: -0.427; as for CUGUGGACUUCCCUAAGAATT against NMS, inactive: -1.13.
As for GGAGCUUGCCUGAUUUUGCTT against Rfx1, the figure is inactive: 0.641; as for “GGUCUUUAACAACAUUGGATT against D10Ertd802e”, inactive: 0.12; as for GCCAGUGAUGGAAUUGUAATT against Rrm2b, inactive: -2.48.
Turning to “CGGACUCGAAAGAAGGAAUTT against 2810036K01Rik”, the z-score is inactive: -0.205.
The figure for GGAUGACAUUUCAGUGUGGTT against Matn4 is inactive: 0.874; for GGAAUUUAAACUGAAGGAUTT against Fkbp9 it is inactive: -0.292; for GGACAACCAAAUUCUCAAGTT against Olfml3 it is inactive: 0.566.
Regarding “GCAUAUCAACGCAGUGUCATT against 1700091F14Rik”, the z-score is inactive: 1.63.
As for GCCUCAAAAUGGCGGAACUTT against Casp8, the figure is inactive: 2.49.
The figure for GAAGAAGGAAAAAAACCCATT against Sec61b is inactive: 0.769.
The figure for GGUGUUUGGGAAAGGUCUGTT against Trpm1 is inactive: 1.13.
As to GGCCAGAUAGCAAAACAGCTT against Mpst, the z-score is inactive: 1.1.
As for GGAGAUUGAACAGUCAAACTT against Pex5, the figure is inactive: -0.782.
Take GGCAGAAGCAGAUAUUAGATT against Rbmxrt: the z-score is inactive: -0.275.
The figure for GGUGGAGCUGGACAAGAAGTT against Nef3 is inactive: -2.44; for GCUCAAAGCUUAUGAUUUCTT against Commd2 it is inactive: -0.35; for GGCUGAGGCUGUGAAGAAGTT against Igfbp5 it is inactive: -0.203.
As for GCUCUUAGGGAAGAAUAUUTT against Arnt, the figure is inactive: 0.556.
